Part of at least one peptide drawing is inferred or uncertain, most often the ends.
System: serum calcium concentration
Settings: standard used in the assay

CC(C)C[C@H](NC(=O)[C@H](CCCCN)NC(=O)CNC(=O)[C@H](CC(C)C)NC(=O)[C@@H](NC(=O)[C@@H]1CSSC[C@H](N)C(=O)N[C@@H](CO)C(=O)N[C@@H](CC(N)=O)C(=O)N[C@@H](CC(C)C)C(=O)N[C@@H](CO)C(=O)N[C@@H]([C@@H](C)O)C(=O)N1)C(C)C)C(=O)N[C@@H](CO)C(=O)N[C@@H](CCC(N)=O)C(=O)N[C@@H](CCC(=O)O)C(=O)N[C@@H](CC(C)C)C(=O)N[C@@H](Cc1c[nH]cn1)C(=O)N[C@@H](CCCCN)C(=O)N[C@@H](CC(C)C)C(=O)N[C@@H](CCC(N)=O)C(=O)N[C@H](C(=O)N[C@@H](Cc1ccc(O)cc1)C(=O)N1CCC[C@H]1C(=O)N[C@@H](CCCNC(=N)N)C(=O)N[C@H](C(=O)N[C@@H](CC(N)=O)C(=O)N[C@H](C(=O)NCC(=O)N[C@@H](CO)C(=O)NCC(=O)N[C@H](C(=O)N1CCC[C@H]1C(N)=O)[C@@H](C)O)[C@@H](C)O)[C@@H](C)O)[C@@H](C)O [standard salmon calcitonin, salmon calcitonin]
biological potency of the standard (independently determined content): greater than 4,000 IU/mg
